# Measurements published in publication PMC5025857, “Redox-dependent Regulation of Gluconeogenesis by a Novel Mechanism Mediated by a Peroxidatic Cysteine of Peroxiredoxin” (Scientific Reports, 2016).
# Amino acid sequences for entries named in this document (tags omitted).
# UniProt P32614: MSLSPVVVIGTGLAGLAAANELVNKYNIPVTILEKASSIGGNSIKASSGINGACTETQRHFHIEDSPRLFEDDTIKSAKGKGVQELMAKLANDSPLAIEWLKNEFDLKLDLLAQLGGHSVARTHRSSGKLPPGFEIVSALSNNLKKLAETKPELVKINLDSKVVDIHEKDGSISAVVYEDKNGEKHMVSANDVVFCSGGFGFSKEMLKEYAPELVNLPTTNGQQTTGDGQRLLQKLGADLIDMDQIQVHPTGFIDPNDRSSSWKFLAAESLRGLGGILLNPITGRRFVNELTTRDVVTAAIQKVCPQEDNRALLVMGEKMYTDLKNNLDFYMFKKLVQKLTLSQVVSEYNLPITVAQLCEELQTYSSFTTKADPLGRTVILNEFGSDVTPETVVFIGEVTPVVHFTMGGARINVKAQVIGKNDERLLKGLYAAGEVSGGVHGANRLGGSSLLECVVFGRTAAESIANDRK
# T1: HAT-tagged Tsa1^C171T (S. cerevisiae) (UniProt P34760)
# T1 sequence: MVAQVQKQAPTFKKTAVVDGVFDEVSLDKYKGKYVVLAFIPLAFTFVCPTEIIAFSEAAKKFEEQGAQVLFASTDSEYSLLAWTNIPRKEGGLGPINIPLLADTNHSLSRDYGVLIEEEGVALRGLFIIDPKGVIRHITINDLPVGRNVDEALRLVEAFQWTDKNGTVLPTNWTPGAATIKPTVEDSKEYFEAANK
# B1: PI SceI (intein Vde1) (protein, UniProt P17255 284-737)
# chain: CFAKGTNVLMADGSIECIENIEVGNKVMGKDGRPREVIKLPRGRETMYSVVQKSQHRAHKSDSSREVPELLKFTCNATHELVVRTPRSVRRLSRTIKGVEYFEVITFEMGQKKAPDGRIVELVKEVSKSYPISEGPERANELVESYRKASNKAYFEWTIEARDLSLLGSHVRKATYQTYAPILYENDHFFDYMQKSKFHLTIEGPKVLAYLLGLWIGDGLSDRATFSVDSRDTSLMERVTEYAEKLNLCAEYKDRKEPQVAKTVNLYSKVVRGNGIRNNLNTENPLWDAIVGLGFLKDGVKNIPSFLSTDNIGTRETFLAGLIDSDGYVTDEHGIKATIKTIHTSVRDGLVSLARSLGLVVSVNAEPAKVDMNGTKHKISYAIYMSGGDVLLNVLSKCAGSKKFRPAPAAAFARECRGFYFELQELKEDDYYGITLSDDSDHQFLLANQVVVHN
# B2: Yol057w (dipeptidyl-peptidase III) (enzyme, UniProt Q08225 1-711)
# chain: MSHFFADHDAPLSMLSVKTEYFPQLTDKEQKYAHFMSKASHAGSRVVMRQVSHESEPIFDLILAIHSKLNGKYPEDDITQKQQTGLYLEYVSQFLSNLGNFKSFGDTKFIPRCEVKFFKQLLELAKINPCSSPLTLSPVDVNHEFTSHHLFSTINELIDIGIYHVEEKAALLGFPSQGYTSAYYLGLPVTPEDMALLKEQLFAELAILPENTRINKVGENSFQIWVASENVKNQITETYPSGQITLSNAVTKVEFIFGDHSREMRLVASYLKEAQKFAANDTQKAMLQEYINHFVTGSSQAHKEAQKLWVKDISPVIETNIGFIETYREPSGIIGEFESLVAIQNKERTAKFSSLVNNAEEFISLLPWSKDYEKPIFNPPDFTSLEVLTFTGSGIPAGINIPNYDDVRLKIGFKNVSLGNILSAAAKSSSKHPPSFISQEDRPIFEKYQSDSFEVQVGIHELLGHGSGKLLTEFTDGFNFDKENPPLGLDGKPVSTYYKVGETWGSKFGQLAGPFEECRAEVIAMFLLTNKKILDIFGFHDVESQDKVIYAGYLQMARAGLLALEYWNPKTGKWGQPHMQARFSIMKTFMKHSTDKNFLKLEMNSTNDDFAIKLDKSLIKTAGHECVKDYLKHLHVYKCSGDVEQGSKYFIDRSTVTPDLASLRDIVLSKRLPRRQFIQSNSYIDDNNKVTLKEYDETPQGMLQSFLDREL
# Biological target: T1, HAT-tagged Tsa1^C171T (S. cerevisiae)
# Test: affinity purification with mass spectrometry; HAT-tagged Tsa1^C171T captured on TALON metal affinity resin from lysate of tsa1Δ cells treated with 0.5 mM H2O2 for 5 min (Buffer L, pH 8.0, 300 mM NaCl, 50 mM NEM); eluate separated by two-dimensional SDS-PAGE (non-reduced, then reduced); spots identified by MALDI-TOF MS
row,binding,Molecule
1,binds,Frd1 (soluble fumarate reductase) (from UniProt P32614 1-470) (enzyme)
2,binds,B1
3,binds,B2

# These are yes or no findings as the source states them, for the method shown. Binding seen in cells or lysates may run through a third protein. Here binding means that the protein was enriched with, or labelled near, the bait; the list need not be complete. Tags and fused reporters may be left off the sequences shown.
